Binding data for three substances are collected here from article PMC9308819 (Nature Communications, 2022).

Chains of the proteins cited; added tags and fusions are not shown. Lines headed by an entry give the natural chain unless they say otherwise; changes in a name come on top.
UniProt P20336: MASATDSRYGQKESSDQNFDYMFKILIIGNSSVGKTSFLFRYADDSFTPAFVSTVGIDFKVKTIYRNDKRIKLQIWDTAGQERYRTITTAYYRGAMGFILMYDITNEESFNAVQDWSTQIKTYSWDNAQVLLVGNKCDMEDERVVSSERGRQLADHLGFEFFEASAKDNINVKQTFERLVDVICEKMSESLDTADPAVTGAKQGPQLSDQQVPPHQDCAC
UniProt P20337: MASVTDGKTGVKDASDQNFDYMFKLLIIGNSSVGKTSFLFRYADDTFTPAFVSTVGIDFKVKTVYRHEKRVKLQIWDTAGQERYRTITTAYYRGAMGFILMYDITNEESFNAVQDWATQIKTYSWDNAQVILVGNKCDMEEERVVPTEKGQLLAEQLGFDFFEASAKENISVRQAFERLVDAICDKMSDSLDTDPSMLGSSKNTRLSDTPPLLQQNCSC
UniProt O95716: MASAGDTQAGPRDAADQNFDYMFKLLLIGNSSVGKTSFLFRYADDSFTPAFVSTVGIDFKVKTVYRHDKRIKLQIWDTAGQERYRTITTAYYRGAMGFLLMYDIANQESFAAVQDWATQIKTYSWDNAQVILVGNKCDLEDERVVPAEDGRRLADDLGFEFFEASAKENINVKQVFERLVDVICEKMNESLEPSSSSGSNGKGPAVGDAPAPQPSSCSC

No constants are given. Whether binding was seen depends on the method and setting.

The assay has as its target T1, Rep15 in pGADT7 (yeast two-hybrid) (human) (UniProt Q6BDI9).
T1 sequence: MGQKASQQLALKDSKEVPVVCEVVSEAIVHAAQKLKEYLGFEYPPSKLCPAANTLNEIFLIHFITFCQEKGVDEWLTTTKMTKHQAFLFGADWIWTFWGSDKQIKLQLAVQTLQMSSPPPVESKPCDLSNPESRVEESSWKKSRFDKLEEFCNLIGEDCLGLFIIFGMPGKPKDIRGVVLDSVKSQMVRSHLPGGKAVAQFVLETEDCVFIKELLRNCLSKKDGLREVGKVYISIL
Put plainly: two-hybrid; pLexA-Rab (Y187) mated with pGADT7-Rep15 (L40ΔGal4); growth on SD-LWH and SD-LWH + 2.5 mM 3-AT, 30 °C, 3–4 days.

As to “Rab3A dominant inactive (SN/TN) in pLexA (yeast two-hybrid) (from UniProt P20336)”, the binding entry is reported as “no binding”.

With “Rab3B dominant inactive (SN/TN) in pLexA (yeast two-hybrid) (from UniProt P20337)”, the binding result is “no binding”.

Turning to “Rab3D dominant inactive (SN/TN) in pLexA (yeast two-hybrid) (from UniProt O95716)”, the binding entry is reported as “no binding”.
